In paper PMC5067693:
Results are given in words; binding and its absence hold for the method and conditions named. Binding seen in cells or lysates may run through a third protein. Some results given as binding are weak or reduced against the parent protein; the word gives no strength.

The chains behind the UniProt entries cited, without tags or fusion partners.
UniProt P37238: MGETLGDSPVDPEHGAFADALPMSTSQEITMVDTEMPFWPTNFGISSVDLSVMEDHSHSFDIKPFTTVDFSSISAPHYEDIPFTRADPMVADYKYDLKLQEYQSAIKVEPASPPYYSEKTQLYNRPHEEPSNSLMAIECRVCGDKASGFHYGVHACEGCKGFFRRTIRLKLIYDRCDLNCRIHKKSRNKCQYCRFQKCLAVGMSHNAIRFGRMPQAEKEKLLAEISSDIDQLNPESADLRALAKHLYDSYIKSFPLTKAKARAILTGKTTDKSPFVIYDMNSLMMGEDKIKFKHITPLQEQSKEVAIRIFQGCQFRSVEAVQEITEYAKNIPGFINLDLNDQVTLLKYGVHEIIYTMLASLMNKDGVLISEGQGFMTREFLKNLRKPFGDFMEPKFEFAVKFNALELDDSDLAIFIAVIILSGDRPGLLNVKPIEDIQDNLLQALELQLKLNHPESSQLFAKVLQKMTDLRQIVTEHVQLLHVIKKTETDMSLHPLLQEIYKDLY
UniProt Q8VI67: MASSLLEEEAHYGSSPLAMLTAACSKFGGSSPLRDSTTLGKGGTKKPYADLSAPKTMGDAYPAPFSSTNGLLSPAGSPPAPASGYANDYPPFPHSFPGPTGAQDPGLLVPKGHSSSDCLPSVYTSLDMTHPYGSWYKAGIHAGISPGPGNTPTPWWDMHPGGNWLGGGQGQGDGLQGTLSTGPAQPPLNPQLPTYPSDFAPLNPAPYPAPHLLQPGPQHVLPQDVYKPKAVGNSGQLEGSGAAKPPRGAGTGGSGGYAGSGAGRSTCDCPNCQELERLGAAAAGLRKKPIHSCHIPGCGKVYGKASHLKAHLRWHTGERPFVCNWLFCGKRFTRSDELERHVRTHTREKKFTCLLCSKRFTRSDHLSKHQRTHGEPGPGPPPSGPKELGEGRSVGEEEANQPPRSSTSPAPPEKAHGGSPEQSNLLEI

Tests used:
HA-PPARγ = HA-PPARγ (UniProt P37238); assay: co-IP; 3T3-L1 cells transfected with the indicated plasmids; whole cell extracts; IP with HA antibody, western blot with Myc or HA antibodies; lysis buffer 1% NP-40, 25 mM HEPES pH 7.5, 150 mM NaCl, 0.25% sodium deoxycholate
[1] = biological target: Endogenous PPARγ (mouse (endogenous in 3T3-L1)) (UniProt P37238); assay: co-IP; 3T3-L1 cells transfected with Myc-Osterix or empty Myc vector, cultured 3 days in MDI differentiation medium; IP with PPARγ antibody, IB with Myc antibody
[2] = biological target: GST-tagged Osterix (mouse) (UniProt Q8VI67); assay: pull-down; purified GST-Osx incubated with HA-tagged PPARγ constructs overexpressed in 3T3-L1 cells (the legend calls them purified), in separate reactions; bound proteins identified by western blot; only the target purified

Row | binding (HA-PPARγ) | binding [1] | binding [2] | Substance
1 | binds | binds | – | Myc-Osterix (from UniProt Q8VI67 1-428)
2 | – | – | binds | HA-PPARγ (from UniProt P37238 1-505)
